# Assay results as given in the supplement of paper PMC8104966.
# This is one part of the list. This data set is noisy: repeats of one test often differ as much as different tests do.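 U2OS cells expressing ACE2 were combined with U2OS cells expressing full-length spike, and imaging quantified fusion as the fraction of nuclei displaying both cell types' fluorescent markers. Non-toxic compounds with a fusion z-score under -3, i.e., over three standard deviations below the plate's DMSO wells, are called inhibitory hits.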
# Tested on: U2OS ACE2 x SARS-CoV-2 spike co-culture
# Test: cell-cell fusion (fraction fused) z-score vs plate DMSO control; higher = more fusion
# Details: 30 µM; 5 h; toxicity class: non-toxic, passed QC
row,Compound,cell-cell fusion (z-score)
1,C/C=C/C(=O)N(CC)c1ccccc1C [Crotamiton],inactive: 3.64
2,CC(C)c1onc(-c2c(Cl)cccc2Cl)c1COc1ccc(/C=C/c2cccc(C(=O)O)c2)c(Cl)c1,inactive: 2.04
3,O=S(=O)([O-])CCS.[Na+],inactive: 3.64
4,O=S(=O)([O-])CCS.[Na+] [Mesna],inactive: 3.95
5,CC1COc2c(N3CCN(C)CC3)c(F)cc3c(=O)c(C(=O)O)cn1c23 (configuration not stated) [Ofloxacin],inactive: 2.63
6,CC(=O)OCC(=O)[C@@]1(O)CC[C@H]2[C@@H]3CCC4=CC(=O)CC[C@]4(C)[C@@]3(F)[C@@H](O)C[C@@]21C [Fludrocortisone acetate],inactive: -1.4
7,C=C(C)[C@H]1Cc2c(ccc3c2O[C@@H]2COc4cc(OC)c(OC)cc4[C@@H]2C3=O)O1,inactive: 1.04
8,CN1c2c(nc(N)[nH]c2=O)NCC1CNc1ccc(C(=O)NC(CCC(=O)[O-])C(=O)[O-])cc1.[Ca+2] (configuration not stated) [Levomefolate calcium],inactive: 4.11
9,CC(C)[N+]1(C)C2CCC1CC(C(=O)OC(CO)c1ccccc1)C2.[Br-] (configuration not stated) [Ipratropium bromide],inactive: 2.02
10,COc1cc2nc(N(C)CCCNC(=O)C3CCCO3)nc(N)c2cc1OC.Cl (configuration not stated) [Alfuzosin hydrochloride],inactive: 1.2
11,N[C@@H](CCCC(=O)O)C(=O)O [L-2-aminoadipic acid],inactive: 2.49
12,C=C1CC2C3C=C(C)C4=CC(=O)CC[C@]4(C)C3CC[C@]2(C)[C@@]1(OC(C)=O)C(C)=O (some centres not stated),inactive: 2.46
13,CC(=O)OC1CC[C@@]2(C)C(CCC3C2CC[C@]2(C)C(C4=CC(=O)OC4)C(OC(C)=O)CC32O)C1 (some centres not stated),inactive: 1.27
14,Cl.OC(CCN1CCCCC1)(c1ccccc1)C1CC2C=CC1C2 (configuration not stated) [Biperiden hydrochloride],inactive: 0.529
15,CC(C)(C#N)c1cc(Cn2cncn2)cc(C(C)(C)C#N)c1 [Anastrozole],inactive: 1.07
16,CC1=C(C)C(=O)C(CCCCC#CCCCC#CCO)=C(C)C1=O,inactive: 2.36
17,Cc1occc(=O)c1O,inactive: 1.94
18,O=C([O-])Cc1ccccc1Nc1c(Cl)cccc1Cl.[Na+],inactive: 0.99
19,COc1ccccc1-c1coc2cc(O)ccc2c1=O,inactive: 1.93
20,CCN1C(=O)NC(c2ccccc2)C1=O (configuration not stated),inactive: 3.48
21,C[C@@H]1O[C@@H](O[C@H]2C[C@@H](O)[C@]3(CO)[C@H]4[C@H](O)C[C@]5(C)[C@@H](C6=CC(=O)OC6)CC[C@]5(O)[C@@H]4CC[C@]3(O)C2)[C@H](O)[C@H](O)[C@H]1O [Ouabain],inactive: 1.41

row,Compound,cell-cell fusion (z-score)
1,Cl.Cl.N=C(N)c1ccc(N)cc1 [4-Aminobenzamidine dihydrochloride],inactive: 1.72
2,C=C[C@@]1(C)CC(=O)[C@@]2(O)[C@](C)(O1)[C@@H](OC(C)=O)[C@@H](O)C1C(C)(C)CC[C@H](O)[C@@]12C (some centres not stated),active: -3.34
3,NCCCS(=O)(=O)[O-].[Na+] [3-Amino-1-propanesulfonic acid sodium],inactive: 1.58
4,COc1cc(Nc2c(C#N)cnc3cc(OCCCN4CCN(C)CC4)c(OC)cc23)c(Cl)cc1Cl [Bosutinib (SKI-606)],inactive: 2.32
5,C[C@H](N)[C@H](O)c1ccc(O)c(O)c1,inactive: -1.89
6,CN(C)CCC=C1c2ccccc2COc2ccccc21.Cl [Doxepin hydrochloride],inactive: 3.21
7,CSCC[C@H](NC(=O)[C@H](Cc1c[nH]c2ccccc12)NC(=O)CCNC(=O)OC(C)(C)C)C(=O)N[C@@H](CC(=O)O)C(=O)N[C@@H](Cc1ccccc1)C(N)=O [Pentagastrin],inactive: 2.46
8,Cc1nn(-c2ccccc2)c(C)c1C=NN1CCN(Cc2ccccc2)CC1,inactive: 2.89
9,COc1cc([C@H]2c3cc4c(cc3[C@@H](O[C@@H]3O[C@@H]5CO[C@@H](C)O[C@H]5[C@H](O)[C@@H]3O)[C@H]3COC(=O)[C@H]23)OCO4)cc(OC)c1O [Etoposide (VP-16)],inactive: 1.28
10,Clc1ccc(COC(Cn2ccnc2)c2ccc(Cl)cc2Cl)c(Cl)c1 (configuration not stated) [Miconazole],active: -9.45
11,NC(=O)c1cccc2cn(-c3ccc([C@@H]4CCCNC4)cc3)nc12 [Niraparib],inactive: 0.25
12,CC1(C)O[C@@H]2C[C@H]3[C@@H]4CCC5=CC(=O)C=C[C@]5(C)[C@@]4(F)[C@@H](O)C[C@]3(C)[C@]2(C(=O)CO)O1 [Triamcinolone acetonide],inactive: 2.47
13,CC(C)NCC(O)COc1ccc(COCCOC(C)C)cc1.O=C(O)/C=C/C(=O)O (configuration not stated),inactive: 3.31
14,CCCN1CCc2cccc3c2[C@H]1Cc1ccc(O)c(O)c1-3.Cl [R(-)-Propylnorapomorphine hydrochloride],active: -6.79
15,C=CCN1CCC23c4c5ccc(O)c4O[C@H]2C(=O)CC[C@@]3(O)[C@H]1C5.Cl,inactive: -0.449
16,Cn1cc(-c2cnn3c(N)c(Br)c([C@@H]4CCCNC4)nc23)cn1,inactive: 0.989
17,O=c1ccc2c(OCCCCc3ccccc3)c3ccoc3cc2o1 [Psora-4],inactive: 2.69
18,CC(=O)O[C@]1(C)CC[C@@]23CC1C(C)(C)[C@@H]2CC[C@H]3C,inactive: 2.23
19,C[C@H]1[C@H](C)CC[C@]2(C(=O)O)CC[C@]3(C)C(=CCC4[C@@]5(C)C[C@@H](O)[C@H](O)[C@@](C)(CO)C5[C@H](O)C[C@]43C)[C@H]12 (some centres not stated),inactive: 1.7
20,COc1ccc(CCn2nnnc2C2(c3ccc(C)cc3)CC2)cc1 [Mephetyl tetrazole],inactive: 3.39
21,CC(C)NCC(O)c1ccc(O)c(O)c1.Cl (configuration not stated) [Isoprenaline hydrochloride],inactive: 0.703

# Reformatted bar-delimited: entries from further up
row | Compound | cell-cell fusion (z-score)
2 | C=C[C@@]1(C)CC(=O)[C@@]2(O)[C@](C)(O1)[C@@H](OC(C)=O)[C@@H](O)C1C(C)(C)CC[C@H](O)[C@@]12C (some centres not stated) | active: -3.34
3 | NCCCS(=O)(=O)[O-].[Na+] [3-Amino-1-propanesulfonic acid sodium] | inactive: 1.58
4 | COc1cc(Nc2c(C#N)cnc3cc(OCCCN4CCN(C)CC4)c(OC)cc23)c(Cl)cc1Cl [Bosutinib (SKI-606)] | inactive: 2.32
5 | C[C@H](N)[C@H](O)c1ccc(O)c(O)c1 | inactive: -1.89
6 | CN(C)CCC=C1c2ccccc2COc2ccccc21.Cl [Doxepin hydrochloride] | inactive: 3.21
7 | CSCC[C@H](NC(=O)[C@H](Cc1c[nH]c2ccccc12)NC(=O)CCNC(=O)OC(C)(C)C)C(=O)N[C@@H](CC(=O)O)C(=O)N[C@@H](Cc1ccccc1)C(N)=O [Pentagastrin] | inactive: 2.46
8 | Cc1nn(-c2ccccc2)c(C)c1C=NN1CCN(Cc2ccccc2)CC1 | inactive: 2.89
9 | COc1cc([C@H]2c3cc4c(cc3[C@@H](O[C@@H]3O[C@@H]5CO[C@@H](C)O[C@H]5[C@H](O)[C@@H]3O)[C@H]3COC(=O)[C@H]23)OCO4)cc(OC)c1O [Etoposide (VP-16)] | inactive: 1.28
10 | Clc1ccc(COC(Cn2ccnc2)c2ccc(Cl)cc2Cl)c(Cl)c1 (configuration not stated) [Miconazole] | active: -9.45
11 | NC(=O)c1cccc2cn(-c3ccc([C@@H]4CCCNC4)cc3)nc12 [Niraparib] | inactive: 0.25
